Series [1] concerns the target Halo-3xFLAG-telomerase (hTERT/hTR RNP) (human) (UniProt O14746). The series can be described thus: EMSA. The following applies: 5' phosphate, EMSA: 20 mM HEPES-KOH pH 7.5, 100 mM KCl, 0.5 mM MgCl2, 0.5 mM TCEP-HCl, 0.05% IGEPAL CO-630, 8% glycerol, 50 ug/mL BSA, 30 min, 22 C, protein in a lysate after overexpression, protein details: N-terminal Halo-3xFLAG on TERT, JF-635 on Halo, label: internal fluorescein-dT at T8.

Protein sequences, listed by entry. Tags and fused reporters are not part of them. Lines headed by an entry give the natural chain unless they say otherwise; changes in a name come on top.
UniProt O14746: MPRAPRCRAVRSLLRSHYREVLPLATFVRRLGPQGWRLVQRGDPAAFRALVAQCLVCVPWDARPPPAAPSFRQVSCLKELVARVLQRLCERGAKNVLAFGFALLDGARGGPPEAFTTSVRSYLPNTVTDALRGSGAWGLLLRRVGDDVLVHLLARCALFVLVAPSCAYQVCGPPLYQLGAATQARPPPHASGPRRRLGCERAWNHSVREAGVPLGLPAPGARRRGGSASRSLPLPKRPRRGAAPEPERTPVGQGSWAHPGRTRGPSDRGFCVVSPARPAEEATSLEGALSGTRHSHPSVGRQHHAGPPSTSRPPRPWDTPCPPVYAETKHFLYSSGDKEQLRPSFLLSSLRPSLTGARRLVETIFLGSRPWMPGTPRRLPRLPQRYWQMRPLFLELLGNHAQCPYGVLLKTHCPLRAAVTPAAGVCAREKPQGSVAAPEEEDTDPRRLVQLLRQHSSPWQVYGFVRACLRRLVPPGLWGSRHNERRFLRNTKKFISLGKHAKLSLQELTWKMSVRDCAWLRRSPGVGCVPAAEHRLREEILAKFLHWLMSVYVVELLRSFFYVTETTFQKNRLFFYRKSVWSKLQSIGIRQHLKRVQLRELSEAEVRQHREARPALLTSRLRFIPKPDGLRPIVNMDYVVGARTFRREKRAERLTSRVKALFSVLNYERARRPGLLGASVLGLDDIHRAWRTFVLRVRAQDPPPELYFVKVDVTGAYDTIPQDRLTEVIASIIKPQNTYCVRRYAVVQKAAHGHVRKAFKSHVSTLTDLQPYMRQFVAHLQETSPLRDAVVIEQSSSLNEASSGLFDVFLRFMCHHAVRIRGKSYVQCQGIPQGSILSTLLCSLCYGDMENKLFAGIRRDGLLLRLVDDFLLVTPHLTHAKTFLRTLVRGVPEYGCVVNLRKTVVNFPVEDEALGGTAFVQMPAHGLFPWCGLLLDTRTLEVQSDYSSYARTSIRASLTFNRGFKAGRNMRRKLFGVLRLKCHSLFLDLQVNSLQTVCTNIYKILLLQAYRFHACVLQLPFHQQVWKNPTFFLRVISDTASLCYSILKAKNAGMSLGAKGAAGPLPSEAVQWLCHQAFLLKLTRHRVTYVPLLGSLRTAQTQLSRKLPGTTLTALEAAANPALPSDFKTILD

The target of series [2] is LD555-labeled telomerase catalytic core (hTERT + hTR fragments) (human) (UniProt O14746). The series can be described thus: smFRET. The note with it: no dNTPs, stable high FRET ~0.7; 5' biotin; amino-C6 dT at T13; protein translated in vitro; protein details: N-terminal FLAG on TERT; label: Cy5 on amino-dT at T13; single-stranded DNA.

Construct, isoform or probe ends are uncertain for at least one entry. For some of these results: Where cells or extracts were used, other partners may take part. For some of these results: Weaker means in comparison with the reference protein, sequence or condition of that experiment.

On to “TTCAGAGTCTGACGGTTAGGGTTAGGGTTAG [EMSAoligo2 (telomeric, 3' 6-thio-dG)]”, for which, in series [1] (1-20 nM telomerase, 2.5 nM DNA, % bound not significantly different from unmodified, 3'-terminal G31 is 6-thio-dG, synthetic backbone), the binding result is “binds”. For “TTCAGAGTCTGACGGTTAGGGTTAGGGTTAG [EMSAoligo1 (telomeric, 3' dG)]”, in series [1] (1-20 nM telomerase, 2.5 nM DNA, single-stranded DNA), the binding result is reported as “binds”. In the case of “TTCAGAGTCTGACGGCTGCTACCTACGGCCTT [EMSAscramble]”, the binding result in series [1] (very weak binding, single-stranded DNA) is listed as “binds more weakly”. On to “TTAGGGTTAGGGTTAGGG [smFRET primer (TTAGGG)3]”, for which, in series [2], the binding result is recorded as “binds”.

The values are drawn from article PMC12764492, “Therapeutic 6-thio-deoxyguanosine inhibits telomere elongation in cancer cells by inducing a non-productive stalled telomerase complex” (Nature Communications, 2025).
